What all share (experiment): PICT
Assay [1] addresses T1, Trs85-FRB (S. cerevisiae) (UniProt P46944).
T1 sequence: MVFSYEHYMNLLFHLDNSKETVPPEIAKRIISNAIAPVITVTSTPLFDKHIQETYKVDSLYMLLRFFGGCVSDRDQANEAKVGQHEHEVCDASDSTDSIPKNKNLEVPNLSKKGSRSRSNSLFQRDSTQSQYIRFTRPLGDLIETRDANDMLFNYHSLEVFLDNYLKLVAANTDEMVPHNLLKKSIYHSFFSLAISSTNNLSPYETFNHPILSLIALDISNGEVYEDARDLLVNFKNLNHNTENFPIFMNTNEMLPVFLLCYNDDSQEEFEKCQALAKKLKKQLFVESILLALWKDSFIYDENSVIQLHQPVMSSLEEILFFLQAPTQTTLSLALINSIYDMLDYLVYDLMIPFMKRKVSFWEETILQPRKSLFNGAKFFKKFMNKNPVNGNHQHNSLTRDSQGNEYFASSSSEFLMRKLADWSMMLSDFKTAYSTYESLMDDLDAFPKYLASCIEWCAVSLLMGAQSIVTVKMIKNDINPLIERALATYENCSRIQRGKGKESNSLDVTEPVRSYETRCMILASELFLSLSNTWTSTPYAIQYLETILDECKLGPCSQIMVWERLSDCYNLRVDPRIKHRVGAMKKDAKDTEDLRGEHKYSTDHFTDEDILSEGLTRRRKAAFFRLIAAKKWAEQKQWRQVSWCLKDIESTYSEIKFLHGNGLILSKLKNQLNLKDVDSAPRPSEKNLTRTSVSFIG

By UniProt entry, the sequences of proteins in these tests, tags left out.
UniProt Q12675: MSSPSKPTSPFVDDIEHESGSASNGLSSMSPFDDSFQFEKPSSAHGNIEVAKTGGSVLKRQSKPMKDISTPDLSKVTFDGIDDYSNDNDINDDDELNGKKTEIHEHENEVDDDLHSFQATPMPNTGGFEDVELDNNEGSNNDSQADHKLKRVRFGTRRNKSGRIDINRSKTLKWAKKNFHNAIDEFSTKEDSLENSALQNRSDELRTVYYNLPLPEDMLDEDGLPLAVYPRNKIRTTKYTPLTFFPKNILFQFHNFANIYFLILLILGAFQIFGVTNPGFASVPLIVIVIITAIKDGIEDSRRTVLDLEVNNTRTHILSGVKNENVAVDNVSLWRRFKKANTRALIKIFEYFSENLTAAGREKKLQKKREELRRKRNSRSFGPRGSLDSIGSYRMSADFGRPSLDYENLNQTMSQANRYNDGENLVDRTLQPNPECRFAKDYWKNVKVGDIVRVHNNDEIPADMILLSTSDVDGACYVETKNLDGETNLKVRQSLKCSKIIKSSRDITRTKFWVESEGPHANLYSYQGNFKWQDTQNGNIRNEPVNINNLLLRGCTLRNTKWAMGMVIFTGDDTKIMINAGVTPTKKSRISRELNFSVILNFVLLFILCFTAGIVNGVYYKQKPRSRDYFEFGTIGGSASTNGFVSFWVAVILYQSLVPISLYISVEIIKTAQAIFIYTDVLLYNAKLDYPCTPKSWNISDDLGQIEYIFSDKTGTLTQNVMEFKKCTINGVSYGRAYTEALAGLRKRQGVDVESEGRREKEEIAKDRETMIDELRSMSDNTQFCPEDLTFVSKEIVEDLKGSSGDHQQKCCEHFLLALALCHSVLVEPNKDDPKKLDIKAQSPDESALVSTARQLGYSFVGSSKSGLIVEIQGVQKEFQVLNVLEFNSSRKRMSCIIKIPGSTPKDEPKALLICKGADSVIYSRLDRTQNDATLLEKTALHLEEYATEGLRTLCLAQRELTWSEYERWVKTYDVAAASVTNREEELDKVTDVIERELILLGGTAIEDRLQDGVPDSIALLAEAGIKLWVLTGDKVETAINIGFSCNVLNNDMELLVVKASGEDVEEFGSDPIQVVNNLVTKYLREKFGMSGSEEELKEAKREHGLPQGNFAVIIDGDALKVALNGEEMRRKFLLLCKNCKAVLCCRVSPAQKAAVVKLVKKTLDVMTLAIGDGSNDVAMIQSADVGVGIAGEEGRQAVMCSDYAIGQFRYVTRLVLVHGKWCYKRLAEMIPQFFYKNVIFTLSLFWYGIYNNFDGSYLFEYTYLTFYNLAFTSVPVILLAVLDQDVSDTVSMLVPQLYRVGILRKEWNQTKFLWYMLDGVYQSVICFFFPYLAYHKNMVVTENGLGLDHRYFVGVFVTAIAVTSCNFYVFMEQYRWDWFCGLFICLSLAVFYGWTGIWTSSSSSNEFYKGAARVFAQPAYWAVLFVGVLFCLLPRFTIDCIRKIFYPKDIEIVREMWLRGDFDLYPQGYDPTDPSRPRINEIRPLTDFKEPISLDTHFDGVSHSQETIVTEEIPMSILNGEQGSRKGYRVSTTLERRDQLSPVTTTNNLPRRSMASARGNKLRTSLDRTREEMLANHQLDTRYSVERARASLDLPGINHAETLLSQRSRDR
UniProt P32660: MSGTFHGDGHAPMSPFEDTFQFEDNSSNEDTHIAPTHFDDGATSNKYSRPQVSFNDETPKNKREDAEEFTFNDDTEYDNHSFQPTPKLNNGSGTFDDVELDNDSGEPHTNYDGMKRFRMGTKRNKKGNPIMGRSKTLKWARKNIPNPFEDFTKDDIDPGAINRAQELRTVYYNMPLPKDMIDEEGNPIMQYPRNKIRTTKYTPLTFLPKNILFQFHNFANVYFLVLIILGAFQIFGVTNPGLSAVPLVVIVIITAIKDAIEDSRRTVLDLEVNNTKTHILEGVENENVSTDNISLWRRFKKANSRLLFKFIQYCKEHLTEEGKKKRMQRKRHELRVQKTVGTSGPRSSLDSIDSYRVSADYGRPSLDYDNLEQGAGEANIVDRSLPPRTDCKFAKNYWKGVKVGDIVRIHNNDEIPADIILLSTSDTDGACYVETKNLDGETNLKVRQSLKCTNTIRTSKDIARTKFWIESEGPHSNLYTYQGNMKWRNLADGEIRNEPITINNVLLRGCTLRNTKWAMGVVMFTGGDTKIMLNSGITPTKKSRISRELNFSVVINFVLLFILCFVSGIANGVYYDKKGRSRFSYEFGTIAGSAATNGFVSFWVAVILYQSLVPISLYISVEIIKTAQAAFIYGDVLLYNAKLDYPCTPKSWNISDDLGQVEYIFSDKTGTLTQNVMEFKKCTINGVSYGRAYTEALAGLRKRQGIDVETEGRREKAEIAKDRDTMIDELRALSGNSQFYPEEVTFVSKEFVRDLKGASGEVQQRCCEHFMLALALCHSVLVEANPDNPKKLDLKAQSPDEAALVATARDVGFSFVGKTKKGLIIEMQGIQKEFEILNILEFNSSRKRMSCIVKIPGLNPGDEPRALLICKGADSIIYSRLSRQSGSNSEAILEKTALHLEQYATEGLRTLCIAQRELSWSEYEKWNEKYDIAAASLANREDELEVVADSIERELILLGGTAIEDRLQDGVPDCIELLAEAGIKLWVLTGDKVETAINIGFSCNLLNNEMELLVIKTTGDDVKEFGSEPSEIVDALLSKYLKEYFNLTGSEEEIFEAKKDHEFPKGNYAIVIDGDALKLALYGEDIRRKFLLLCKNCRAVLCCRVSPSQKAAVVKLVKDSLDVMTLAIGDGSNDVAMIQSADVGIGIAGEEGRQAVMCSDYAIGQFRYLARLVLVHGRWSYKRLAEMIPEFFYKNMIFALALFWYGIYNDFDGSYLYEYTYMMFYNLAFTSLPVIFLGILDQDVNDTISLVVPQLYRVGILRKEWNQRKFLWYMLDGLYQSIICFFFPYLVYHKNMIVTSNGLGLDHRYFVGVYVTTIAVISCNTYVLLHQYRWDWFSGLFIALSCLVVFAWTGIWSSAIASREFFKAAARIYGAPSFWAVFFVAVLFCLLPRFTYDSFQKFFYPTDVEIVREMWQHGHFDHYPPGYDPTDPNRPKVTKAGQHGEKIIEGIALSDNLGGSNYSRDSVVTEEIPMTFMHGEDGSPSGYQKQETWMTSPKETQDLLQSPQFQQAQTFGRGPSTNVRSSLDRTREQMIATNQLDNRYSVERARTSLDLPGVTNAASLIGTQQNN

Assay [2] concerns the target T1, Trs85-FRB (S. cerevisiae). This is another data set of the same source.
Assay [3] concerns the target T1, Trs85-FRB (S. cerevisiae). The source holds these as a separate data set.

Where two headings read alike, the source gives them in different places. Results are given in words; binding and its absence hold for the method and conditions named. Some binding calls cover weakened binding; strength is not graded here. Sequences can lack the tags named with a protein.

Turning to Dnf2 (from UniProt Q12675 1-1612), in assay [1], the binding result was “binds”.

For the molecule Dnf1 (from UniProt P32660 1-1571), the binding entry in assay [1] is given as “binds”.

B1: Bet5-GFP (protein, UniProt Q03630 1-159)
chain: MGIYSFWIFDRHCNCIFDREWTLASNSASGTINSKQNEEDAKLLYGMIFSLRSITQKLSKGSVKNDIRSISTGKYRVHTYCTASGLWFVLLSDFKQQSYTQVLQYIYSHIYVKYVSNNLLSPYDFAENENEMRGQGTRKITNRNFISVLESFLAPMVNQ
As to B1, the binding entry in assay [1] is reported as “binds”.

B2: Drs2-GFP (protein, UniProt P39524 1-1355)
chain: MNDDRETPPKRKPGEDDTLFDIDFLDDTTSHSGSRSKVTNSHANANYIPPSHVLPEETIDLDADDDNIENDVHENLFMSNNHDDQTSWNANRFDSDAYQPQSLRAVKPPGLFARFGNGLKNAFTFKRKKGPESFEMNHYNAVTNNELDDNYLDSRNKFNIKILFNRYILRKNVGDAEGNGEPRVIHINDSLANSSFGYSDNHISTTKYNFATFLPKFLFQEFSKYANLFFLCTSAIQQVPHVSPTNRYTTIGTLLVVLIVSAMKECIEDIKRANSDKELNNSTAEIFSEAHDDFVEKRWIDIRVGDIIRVKSEEPIPADTIILSSSEPEGLCYIETANLDGETNLKIKQSRVETAKFIDVKTLKNMNGKVVSEQPNSSLYTYEGTMTLNDRQIPLSPDQMILRGATLRNTAWIFGLVIFTGHETKLLRNATATPIKRTAVEKIINRQIIALFTVLIVLILISSIGNVIMSTADAKHLSYLYLEGTNKAGLFFKDFLTFWILFSNLVPISLFVTVELIKYYQAFMIGSDLDLYYEKTDTPTVVRTSSLVEELGQIEYIFSDKTGTLTRNIMEFKSCSIAGHCYIDKIPEDKTATVEDGIEVGYRKFDDLKKKLNDPSDEDSPIINDFLTLLATCHTVIPEFQSDGSIKYQAASPDEGALVQGGADLGYKFIIRKPNSVTVLLEETGEEKEYQLLNICEFNSTRKRMSAIFRFPDGSIKLFCKGADTVILERLDDEANQYVEATMRHLEDYASEGLRTLCLAMRDISEGEYEEWNSIYNEAATTLDNRAEKLDEAANLIEKNLILIGATAIEDKLQDGVPETIHTLQEAGIKIWVLTGDRQETAINIGMSCRLLSEDMNLLIINEETRDDTERNLLEKINALNEHQLSTHDMNTLALVIDGKSLGFALEPELEDYLLTVAKLCKAVICCRVSPLQKALVVKMVKRKSSSLLLAIGDGANDVSMIQAAHVGVGISGMEGMQAARSADIAVGQFKFLKKLLLVHGSWSYQRISVAILYSFYKNTALYMTQFWYVFANAFSGQSIMESWTMSFYNLFFTVWPPFVIGVFDQFVSSRLLERYPQLYKLGQKGQFFSVYIFWGWIINGFFHSAIVFIGTILIYRYGFALNMHGELADHWSWGVTVYTTSVIIVLGKAALVTNQWTKFTLIAIPGSLLFWLIFFPIYASIFPHANISREYYGVVKHTYGSGVFWLTLIVLPIFALVRDFLWKYYKRMYEPETYHVIQEMQKYNISDSRPHVQQFQNAIRKVRQVQRMKKQRGFAFSQAEEGGQEKIVRMYDTTQKRGKYGELQDASANPFNDNNGLGSNDFESAEPFIENPFADGNQNSNRFSSSRDDISFDI
Take B2: the binding result in assay [1], in assay [2] and in assay [3] was “binds” each time.

Values taken from publication doi:10.1101/2020.12.25.417865.
